In publication doi:10.1101/2023.07.05.547753:
These are yes or no findings as the source states them, for the method shown. Binding seen in cells or lysates may run through a third protein. Some results given as binding are weak or reduced against the parent protein; the word gives no strength. Sequences can lack the tags named with a protein. Each block holds one substance with its values, some of them ahead of it.

Amino acid sequences for entries named in this document (tags omitted).
UniProt O22130: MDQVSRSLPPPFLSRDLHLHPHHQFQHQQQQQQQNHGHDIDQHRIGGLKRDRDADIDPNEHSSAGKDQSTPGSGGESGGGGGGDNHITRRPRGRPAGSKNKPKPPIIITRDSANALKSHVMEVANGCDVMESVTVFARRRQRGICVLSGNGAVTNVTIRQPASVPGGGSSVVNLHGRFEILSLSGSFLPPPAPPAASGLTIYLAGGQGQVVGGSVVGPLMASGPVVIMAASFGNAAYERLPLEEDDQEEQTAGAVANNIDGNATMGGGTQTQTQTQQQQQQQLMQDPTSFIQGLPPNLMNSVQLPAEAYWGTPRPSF

Tests used:
[1] = biological target: T1, FRS12 fused to eGFP or mRFP (FRET-FLIM fusion) (Arabidopsis thaliana) (UniProt Q3E7I5); assay: FRET or BRET
T1 sequence: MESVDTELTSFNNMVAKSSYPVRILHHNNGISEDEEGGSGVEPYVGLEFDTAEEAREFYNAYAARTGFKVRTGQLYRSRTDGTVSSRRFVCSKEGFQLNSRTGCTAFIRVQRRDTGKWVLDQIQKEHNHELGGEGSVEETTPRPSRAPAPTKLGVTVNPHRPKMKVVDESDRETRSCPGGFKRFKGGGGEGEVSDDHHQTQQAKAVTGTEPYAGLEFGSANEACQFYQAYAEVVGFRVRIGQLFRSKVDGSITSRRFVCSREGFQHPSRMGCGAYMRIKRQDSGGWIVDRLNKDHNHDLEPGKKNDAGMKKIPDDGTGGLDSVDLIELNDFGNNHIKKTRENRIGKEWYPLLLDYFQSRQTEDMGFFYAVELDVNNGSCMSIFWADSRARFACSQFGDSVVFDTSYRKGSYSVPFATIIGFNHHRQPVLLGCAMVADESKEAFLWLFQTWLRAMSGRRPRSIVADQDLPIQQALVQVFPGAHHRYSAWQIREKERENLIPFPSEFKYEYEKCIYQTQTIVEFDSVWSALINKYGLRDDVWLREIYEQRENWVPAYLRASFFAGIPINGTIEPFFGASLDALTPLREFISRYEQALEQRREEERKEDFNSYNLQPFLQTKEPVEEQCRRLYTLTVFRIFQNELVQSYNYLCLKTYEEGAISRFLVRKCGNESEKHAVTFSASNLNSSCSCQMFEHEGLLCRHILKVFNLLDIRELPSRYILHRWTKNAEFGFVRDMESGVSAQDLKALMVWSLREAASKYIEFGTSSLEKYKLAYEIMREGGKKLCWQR

[2] = biological target: T2, FRS7 fused to eGFP or mRFP (FRET-FLIM fusion) (Arabidopsis thaliana) (UniProt Q9M8J3); assay: FRET or BRET
T2 sequence: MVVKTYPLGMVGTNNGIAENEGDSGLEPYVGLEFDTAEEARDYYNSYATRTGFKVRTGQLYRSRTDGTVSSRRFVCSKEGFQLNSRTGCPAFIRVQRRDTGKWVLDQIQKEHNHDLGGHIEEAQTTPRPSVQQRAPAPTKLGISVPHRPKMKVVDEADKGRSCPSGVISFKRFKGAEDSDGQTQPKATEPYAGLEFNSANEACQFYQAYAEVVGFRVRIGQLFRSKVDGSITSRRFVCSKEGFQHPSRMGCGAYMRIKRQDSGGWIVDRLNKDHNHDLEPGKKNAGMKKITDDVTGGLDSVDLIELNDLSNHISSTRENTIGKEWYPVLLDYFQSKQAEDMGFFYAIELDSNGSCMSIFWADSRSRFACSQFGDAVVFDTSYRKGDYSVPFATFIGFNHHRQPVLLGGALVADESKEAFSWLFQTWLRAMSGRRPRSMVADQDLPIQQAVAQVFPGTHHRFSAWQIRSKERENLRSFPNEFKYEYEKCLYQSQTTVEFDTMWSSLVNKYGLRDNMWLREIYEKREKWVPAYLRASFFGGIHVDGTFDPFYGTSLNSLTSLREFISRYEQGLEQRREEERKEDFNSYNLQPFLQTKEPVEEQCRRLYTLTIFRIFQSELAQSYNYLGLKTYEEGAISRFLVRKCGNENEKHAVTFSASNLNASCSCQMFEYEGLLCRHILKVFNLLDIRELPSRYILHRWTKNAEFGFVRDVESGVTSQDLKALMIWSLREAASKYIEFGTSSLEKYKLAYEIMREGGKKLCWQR

[3] = biological target: T3, HDA15 fused to eGFP or mRFP (FRET-FLIM fusion) (Arabidopsis thaliana) (UniProt Q8GXJ1); assay: FRET or BRET
T3 sequence: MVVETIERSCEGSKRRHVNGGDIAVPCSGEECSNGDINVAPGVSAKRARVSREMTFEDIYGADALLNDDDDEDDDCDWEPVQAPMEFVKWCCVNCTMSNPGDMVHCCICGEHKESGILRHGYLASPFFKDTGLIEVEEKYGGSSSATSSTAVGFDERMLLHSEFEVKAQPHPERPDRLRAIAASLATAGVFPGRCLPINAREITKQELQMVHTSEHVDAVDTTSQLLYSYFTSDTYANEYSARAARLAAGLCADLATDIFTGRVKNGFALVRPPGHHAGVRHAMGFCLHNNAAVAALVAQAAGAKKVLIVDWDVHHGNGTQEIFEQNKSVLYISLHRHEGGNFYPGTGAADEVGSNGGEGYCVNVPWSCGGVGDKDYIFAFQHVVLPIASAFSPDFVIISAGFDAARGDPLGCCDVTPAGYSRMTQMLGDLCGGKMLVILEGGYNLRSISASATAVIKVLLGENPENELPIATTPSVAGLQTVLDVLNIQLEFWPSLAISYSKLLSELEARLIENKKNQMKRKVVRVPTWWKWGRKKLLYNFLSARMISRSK

[4] = biological target: T4, FRS12 fused with pSITE-cEYFP-C1 (BiFC fusion) (Arabidopsis thaliana) (UniProt Q3E7I5); assay: split reporter
T4 sequence: T1 sequence

[5] = biological target: T5, FRS7 fused with pSITE-cEYFP-C1 (BiFC fusion) (Arabidopsis thaliana) (UniProt Q9M8J3); assay: split reporter
T5 sequence: T2 sequence

[6] = biological target: T6, FRS12-GFP (Arabidopsis thaliana) (UniProt Q3E7I5); assay: co-IP
T6 sequence: T1 sequence

[7] = biological target: T7, FRS7-GFP (Arabidopsis thaliana) (UniProt Q9M8J3); assay: co-IP
T7 sequence: T2 sequence

binding [1]: binds
binding [2]: binds
binding [3]: binds
Substance: AHL22 fused to eGFP or mRFP (FRET-FLIM fusion) (from UniProt O22130 1-317)

binding [4]: binds
binding [5]: binds
Substance: AHL22 fused with pSITE-nEYFP-N1 (BiFC fusion) (from UniProt O22130 1-317)

binding [6]: binds
binding [7]: binds
Substance: AHL22-3FLAG (from UniProt O22130 1-317)
